# US12535491B2, “Vaccine comprising protein-targeted (PT) extracellular DNA isolated from bacterial matrix” (priority 2018, dated 2026)
# B1: PGRP2_HUMAN (protein, UniProt Q96PD5 22-576, looked up)
# N-acetylmuramoyl-L-alanine …: SLPLLMDSVIQALAELEQKVPAAKTRHTASAWLMSAPNSGPHNRLYHFLLGAWSLNATELDPCPLSPELLGLTKEVARHDVREGKEYGVVLAPDGSTVAVEPLLAGLEAGLQGRRVINLPLDSMAAPWETGDTFPDVVAIAPDVRATSSPGLRDGSPDVTTADIGANTPDATKGCPDVQASLPDAKAKSPPTMVDSLLAVTLAGNLGLTFLRGSQTQSHPDLGTEGCWDQLSAPRTFTLLDPKASLLTMAFLNGALDGVILGDYLSRTPEPRPSLSHLLSQYYGAGVARDPGFRSNFRRQNGAALTSASILAQQVWGTLVLLQRLEPVHLQLQCMSQEQLAQVAANATKEFTEAFLGCPAIHPRCRWGAAPYRGRPKLLQLPLGFLYVHHTYVPAPPCTDFTRCAANMRSMQRYHQDTQGWGDIGYSFVVGSDGYVYEGRGWHWVGAHTLGHNSRGFGVAIVGNYTAALPTEAALRTVRDTLPSCAVRAGLLRPDYALLGHRQLVRTDCPGDALFDLLRTWPHFTATVKPRPARSVSKRSRREPPPRTLPATDLQ
# B2: HV372_HUMAN (protein, UniProt A0A0B4J1Y9 20-119, looked up)
# Immunoglobulin heavy variable …: EVQLVESGGGLVQPGGSLRLSCAASGFTFSDHYMDWVRQAPGKGLEWVGRTRNKANSYTTEYAASVKGRFTISRDDSKNSLYLQMNSLKTEDTAVYYCAR
# B3: LV310_HUMAN (protein, UniProt A0A075B6K4 20-115, looked up)
# Immunoglobulin lambda …: SYELTQPPSVSVSPGQTARITCSGDALPKKYAYWYQQKSGQAPVLVIYEDSKRPSGIPERFSGSSSGTMATLTISGAQVEDEADYYCYSTDSSGNH
# B4: CD5L_HUMAN (protein, UniProt O43866 20-347, looked up)
# CD5 antigen-like: SPSGVRLVGGLHRCEGRVEVEQKGQWGTVCDDGWDIKDVAVLCRELGCGAASGTPSGILYEPPAEKEQKVLIQSVSCTGTEDTLAQCEQEEVYDCSHDEDAGASCENPESSFSPVPEGVRLADGPGHCKGRVEVKHQNQWYTVCQTGWSLRAAKVVCRQLGCGRAVLTQKRCNKHAYGRKPIWLSQMSCSGREATLQDCPSGPWGKNTCNHDEDTWVECEDPFDLRLVGGDNLCSGRLEVLHKGVWGSVCDDNWGEKEDQVVCKQLGCGKSLSPSFRDRKCYGPGVGRIWLDNVRCSGEEQSLEQCQHRFWGFHDCTHQEDVAVICSG
# B5: C4BPA_HUMAN (protein, UniProt P04003 49-597, looked up)
# C4b-binding protein alpha …: NCGPPPTLSFAAPMDITLTETRFKTGTTLKYTCLPGYVRSHSTQTLTCNSDGEWVYNTFCIYKRCRHPGELRNGQVEIKTDLSFGSQIEFSCSEGFFLIGSTTSRCEVQDRGVGWSHPLPQCEIVKCKPPPDIRNGRHSGEENFYAYGFSVTYSCDPRFSLLGHASISCTVENETIGVWRPSPPTCEKITCRKPDVSHGEMVSGFGPIYNYKDTIVFKCQKGFVLRGSSVIHCDADSKWNPSPPACEPNSCINLPDIPHASWETYPRPTKEDVYVVGTVLRYRCHPGYKPTTDEPTTVICQKNLRWTPYQGCEALCCPEPKLNNGEITQHRKSRPANHCVYFYGDEISFSCHETSRFSAICQGDGTWSPRTPSCGDICNFPPKIAHGHYKQSSSYSFFKEEIIYECDKGYILVGQAKLSCSYSHWSAPAPQCKALCRKPELVNGRLSVDKDQYVEPENVTIQCDSGYGVVGPQSITCSGNRTWYPEVPKCEWETPEGCEQVLTGKRLMQCLPNPEDVKMALEVYKLSLEIEQLELQRDSARQSTLDKEL
# B6: ALS_HUMAN (protein, UniProt P35858 28-605, looked up)
# Insulin-like growth …: ADPGTPGEAEGPACPAACVCSYDDDADELSVFCSSRNLTRLPDGVPGGTQALWLDGNNLSSVPPAAFQNLSSLGFLNLQGGQLGSLEPQALLGLENLCHLHLERNQLRSLALGTFAHTPALASLGLSNNRLSRLEDGLFEGLGSLWDLNLGWNSLAVLPDAAFRGLGSLRELVLAGNRLAYLQPALFSGLAELRELDLSRNALRAIKANVFVQLPRLQKLYLDRNLIAAVAPGAFLGLKALRWLDLSHNRVAGLLEDTFPGLLGLRVLRLSHNAIASLRPRTFKDLHFLEELQLGHNRIRQLAERSFEGLGQLEVLTLDHNQLQEVKAGAFLGLTNVAVMNLSGNCLRNLPEQVFRGLGKLHSLHLEGSCLGRIRPHTFTGLSGLRRLFLKDNGLVGIEEQSLWGLAELLELDLTSNQLTHLPHRLFQGLGKLEYLLLSRNRLAELPADALGPLQRAFWLDVSHNRLEALPNSLLAPLGRLRYLSLRNNSLRTFTPQPPGLERLWLEGNPWDCGCPLKALRDFALQNPSAVPRFVQAICEGDDCQPPAYTYNNITCASPPEVVGLDLRDLSEAHFAPC
# Test system: heat-resistant proteins of human plasma
# Experiment: LC/MS of heat-resistant proteins in plasma after exposure to proteinase K and boiling
# Conditions: LC/MS; healthy human blood plasma after incubation for 30 minutes with Proteinase K, following heating for 100° C. for 5 minutes (probe_2)
row,Molecule,N-plasma + pK
1,B1,5
2,B2,1
3,B3,1
4,B4,9
5,B5,10
6,B6,2
